Results are given in words; binding and its absence hold for the method and conditions named. Binding seen in cells or lysates may run through a third protein. Some entries that bind do so weakly or less than the wild type.
Key:
Test in all cases: co-IP; total nuclear lysates (1 mg) of ARCaPM cells, PDGF-BB (20 ng/ml) time course; 5 µg anti-HIF-1α, anti-β-catenin or anti-p68 antibody or normal IgG, Protein A/G Sepharose 4 Fast Flow beads; Western blot
[1] = target: β-catenin (human (endogenous in ARCaPM)) (UniProt P35222)
[2] = target: hypoxia-inducible factor (HIF)-1α (human (endogenous in ARCaPM)) (UniProt Q16665)
[3] = target: p68 (human (endogenous in ARCaPM)) (UniProt P17844)

Sequences of proteins named here, by UniProt entry; tags and fusion partners are left off.
UniProt P35222: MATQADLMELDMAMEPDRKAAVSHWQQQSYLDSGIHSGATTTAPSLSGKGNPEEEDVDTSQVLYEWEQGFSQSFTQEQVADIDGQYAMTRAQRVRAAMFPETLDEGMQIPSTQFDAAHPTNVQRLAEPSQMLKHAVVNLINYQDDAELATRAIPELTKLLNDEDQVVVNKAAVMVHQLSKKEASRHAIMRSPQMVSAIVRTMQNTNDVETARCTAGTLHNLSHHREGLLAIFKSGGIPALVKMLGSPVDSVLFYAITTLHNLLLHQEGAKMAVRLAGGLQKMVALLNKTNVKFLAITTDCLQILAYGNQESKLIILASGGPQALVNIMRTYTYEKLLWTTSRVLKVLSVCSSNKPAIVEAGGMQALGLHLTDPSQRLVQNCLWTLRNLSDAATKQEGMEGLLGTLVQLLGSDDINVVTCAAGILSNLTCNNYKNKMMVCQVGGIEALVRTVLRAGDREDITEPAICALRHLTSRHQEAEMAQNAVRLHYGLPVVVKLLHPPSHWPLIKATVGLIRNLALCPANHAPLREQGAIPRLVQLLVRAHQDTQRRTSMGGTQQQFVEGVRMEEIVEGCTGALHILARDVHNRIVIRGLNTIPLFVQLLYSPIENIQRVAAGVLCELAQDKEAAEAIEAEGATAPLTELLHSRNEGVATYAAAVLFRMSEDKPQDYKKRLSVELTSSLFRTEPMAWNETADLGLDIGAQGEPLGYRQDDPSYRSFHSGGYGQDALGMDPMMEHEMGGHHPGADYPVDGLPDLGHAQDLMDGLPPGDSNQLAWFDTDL
UniProt Q16665: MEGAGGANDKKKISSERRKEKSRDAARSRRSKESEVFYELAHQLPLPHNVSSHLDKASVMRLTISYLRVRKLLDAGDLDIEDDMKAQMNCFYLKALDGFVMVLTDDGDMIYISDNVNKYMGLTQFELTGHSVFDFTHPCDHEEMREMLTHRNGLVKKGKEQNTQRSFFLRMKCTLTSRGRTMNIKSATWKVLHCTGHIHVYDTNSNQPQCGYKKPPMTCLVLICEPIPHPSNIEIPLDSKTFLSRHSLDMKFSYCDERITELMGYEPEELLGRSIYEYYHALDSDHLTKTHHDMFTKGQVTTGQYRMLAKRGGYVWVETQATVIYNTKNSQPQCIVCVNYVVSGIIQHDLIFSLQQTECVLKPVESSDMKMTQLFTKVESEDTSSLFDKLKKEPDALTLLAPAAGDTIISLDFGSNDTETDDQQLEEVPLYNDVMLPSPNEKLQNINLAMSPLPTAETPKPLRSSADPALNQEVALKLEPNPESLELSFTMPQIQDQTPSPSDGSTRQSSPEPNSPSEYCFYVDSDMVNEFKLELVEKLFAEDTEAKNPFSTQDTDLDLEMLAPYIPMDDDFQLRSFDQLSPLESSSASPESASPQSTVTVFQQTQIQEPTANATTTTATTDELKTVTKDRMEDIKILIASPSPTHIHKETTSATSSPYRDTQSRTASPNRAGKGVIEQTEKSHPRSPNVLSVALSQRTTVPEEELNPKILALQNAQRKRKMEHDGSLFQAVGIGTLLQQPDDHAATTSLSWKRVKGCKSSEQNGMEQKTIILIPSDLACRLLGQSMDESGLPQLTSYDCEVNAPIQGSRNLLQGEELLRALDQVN
UniProt P17844: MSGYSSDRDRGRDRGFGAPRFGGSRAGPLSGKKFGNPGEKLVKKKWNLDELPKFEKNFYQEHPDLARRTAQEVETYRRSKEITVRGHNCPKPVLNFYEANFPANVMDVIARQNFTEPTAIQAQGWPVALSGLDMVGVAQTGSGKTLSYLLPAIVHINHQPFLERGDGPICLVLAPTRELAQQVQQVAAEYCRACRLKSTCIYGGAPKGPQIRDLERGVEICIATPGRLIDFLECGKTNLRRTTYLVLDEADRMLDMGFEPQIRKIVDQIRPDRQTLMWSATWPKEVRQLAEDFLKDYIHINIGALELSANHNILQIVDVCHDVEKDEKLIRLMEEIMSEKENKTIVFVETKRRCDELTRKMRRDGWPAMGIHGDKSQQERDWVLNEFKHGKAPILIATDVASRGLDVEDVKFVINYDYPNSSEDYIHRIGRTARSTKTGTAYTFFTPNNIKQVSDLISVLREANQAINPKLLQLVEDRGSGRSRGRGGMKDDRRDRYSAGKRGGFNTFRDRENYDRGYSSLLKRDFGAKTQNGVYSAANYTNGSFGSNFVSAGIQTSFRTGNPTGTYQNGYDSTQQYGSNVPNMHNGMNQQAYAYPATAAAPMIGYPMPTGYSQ

Row | binding [1] | binding [2] | binding [3] | Substance
1 | binds |  |  | hypoxia-inducible factor (HIF)-1α (from UniProt Q16665 1-826)
2 | binds |  |  | p68 (from UniProt P17844 1-614)
3 |  | binds | binds | β-catenin (from UniProt P35222 1-781)
